These are yes or no findings as the source states them, for the method shown. In cells and extracts the contact can be indirect. Some results given as binding are weak or reduced against the parent protein; the word gives no strength. Sequences can lack the tags named with a protein.
T1: Arabidopsis thaliana Regulator of G Signaling 1 protein (AtRGS1), split-luciferase fusion (Arabidopsis thaliana) (UniProt Q8H1F2)
T1 sequence: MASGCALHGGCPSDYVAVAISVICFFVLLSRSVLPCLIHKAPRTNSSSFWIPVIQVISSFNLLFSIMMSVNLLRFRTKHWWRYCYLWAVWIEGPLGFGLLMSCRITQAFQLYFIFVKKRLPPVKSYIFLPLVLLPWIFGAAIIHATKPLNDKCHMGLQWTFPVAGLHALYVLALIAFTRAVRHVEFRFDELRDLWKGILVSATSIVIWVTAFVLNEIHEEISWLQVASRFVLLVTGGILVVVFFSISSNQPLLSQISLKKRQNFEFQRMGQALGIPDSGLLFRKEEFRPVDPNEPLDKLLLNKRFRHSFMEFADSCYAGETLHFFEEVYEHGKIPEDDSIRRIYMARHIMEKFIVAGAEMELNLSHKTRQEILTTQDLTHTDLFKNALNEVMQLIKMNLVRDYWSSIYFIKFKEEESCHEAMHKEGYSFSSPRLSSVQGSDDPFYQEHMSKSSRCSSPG

T2: AGB1/AGG1 (Gβγ) co-expressed: AGB1-nLUC with mCherry-AtAGG1 (Arabidopsis thaliana) (UniProt P49177+Q9FDX9)
T2 sequence 1: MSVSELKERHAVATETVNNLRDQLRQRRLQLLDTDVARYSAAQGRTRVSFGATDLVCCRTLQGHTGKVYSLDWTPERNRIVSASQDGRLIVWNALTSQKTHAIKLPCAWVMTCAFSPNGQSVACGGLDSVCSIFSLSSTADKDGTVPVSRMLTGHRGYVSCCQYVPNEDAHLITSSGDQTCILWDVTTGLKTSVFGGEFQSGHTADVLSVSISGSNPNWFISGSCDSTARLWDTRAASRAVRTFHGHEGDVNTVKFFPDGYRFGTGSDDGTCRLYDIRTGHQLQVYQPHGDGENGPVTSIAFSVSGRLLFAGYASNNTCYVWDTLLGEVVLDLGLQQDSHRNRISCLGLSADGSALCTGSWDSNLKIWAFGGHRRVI
T2 sequence 2: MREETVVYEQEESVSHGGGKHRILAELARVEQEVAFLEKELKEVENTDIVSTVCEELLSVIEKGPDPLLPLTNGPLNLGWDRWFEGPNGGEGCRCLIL

T3: AGB1, Gβ subunit, split-luciferase fusion, expressed without AGG1 (Arabidopsis thaliana), P49177
T3 chain: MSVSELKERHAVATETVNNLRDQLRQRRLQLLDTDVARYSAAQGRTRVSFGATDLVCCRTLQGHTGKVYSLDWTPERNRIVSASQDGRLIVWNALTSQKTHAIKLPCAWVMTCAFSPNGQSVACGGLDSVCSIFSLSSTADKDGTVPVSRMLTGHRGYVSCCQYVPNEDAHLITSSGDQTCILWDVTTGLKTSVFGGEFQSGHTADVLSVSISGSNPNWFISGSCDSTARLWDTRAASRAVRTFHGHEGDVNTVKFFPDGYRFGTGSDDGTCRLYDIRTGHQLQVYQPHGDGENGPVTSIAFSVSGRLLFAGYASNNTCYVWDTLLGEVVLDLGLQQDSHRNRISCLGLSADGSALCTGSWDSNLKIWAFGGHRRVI


What was measured:
Assay in all cases: split reporter; firefly split luciferase; nLUC and cLUC fusion partners co-expressed in Nicotiana benthamiana leaves by agroinfiltration; 6-mm leaf discs 48 h after infiltration, 0.4 mM D-luciferin; expression normalized by HiBiT
[1] = target: T1, Arabidopsis thaliana Regulator of G Signaling 1 protein (AtRGS1), split-luciferase fusion (Arabidopsis thaliana)
[2] = target: T2, AGB1/AGG1 (Gβγ) co-expressed: AGB1-nLUC with mCherry-AtAGG1 (Arabidopsis thaliana)
[3] = target: T3, AGB1, Gβ subunit, split-luciferase …; conditions: remark: other sources report otherwise

Row | binding [1] | Binder | other results
1 | no binding | ATBβ, B subunit isoform of protein phosphatase 2A, split-luciferase fusion (protein, UniProt Q39247 1-501) MNGGDDAATSGPPPSLEWRFSQVFGERTAGEEVQEVDIISAIEFDKSGDHLATGDRGGRVVLFERTDTKDHGGSRKDLEQTDYPVRHPEFRYKTEFQSHEPEFDYLKSLEIEEKINKIRWCQPANGALFLLSTNDKTIKYWKVQEKKIKKISEMNIDPSESSNIPPQLVTNGLPADKGHDYLSKDFSFPPGGIPSLRLPVVVTSQETNLVARCRRVYAHAHDYHINSISNSSDGETFISADDLRVNLWNLEISNQSFNIVDVKPTNMEDLTEVITSAEFHPIHCNMLAYSSSKGSIRLIDMRQSALCDSHTKLFEEPEAPGSRSFFTEIIASISDIKFSKDGRYILSRDYMTLKLWDINMDSGPVASYQVHEHLRPRLCDLYENDSIFDKFECCLSGDGLRVATGSYSNLFRVFGASQGSTEAATLEASKNPMRRQIQTPARPSRSIGSMTRVVRRGSESPGTEANGNAYDFTTKLLHMAWHPTENSIACAAANSLYMYYA | –
2 | – | AtGPA1, canonical Gα subunit, split-luciferase fusion (protein, UniProt P18064 1-383) MGLLCSRSRHHTEDTDENTQAAEIERRIEQEAKAEKHIRKLLLLGAGESGKSTIFKQIKLLFQTGFDEGELKSYVPVIHANVYQTIKLLHDGTKEFAQNETDSAKYMLSSESIAIGEKLSEIGGRLDYPRLTKDIAEGIETLWKDPAIQETCARGNELQVPDCTKYLMENLKRLSDINYIPTKEDVLYARVRTTGVVEIQFSPVGENKKSGEVYRLFDVGGQRNERRKWIHLFEGVTAVIFCAAISEYDQTLFEDEQKNRMMETKELFDWVLKQPCFEKTSFMLFLNKFDIFEKKVLDVPLNVCEWFRDYQPVSSGKQEIEHAYEFVKKKFEELYYQNTAPDRVDRVFKIYRTTALDQKLVKKTFKLVDETLRRRNLLEAGLL | binding [2]: binds
3 | – | AtGPA1, canonical Gα subunit, split-luciferase fusion, P18064 1-383 (protein) MGLLCSRSRHHTEDTDENTQAAEIERRIEQEAKAEKHIRKLLLLGAGESGKSTIFKQIKLLFQTGFDEGELKSYVPVIHANVYQTIKLLHDGTKEFAQNETDSAKYMLSSESIAIGEKLSEIGGRLDYPRLTKDIAEGIETLWKDPAIQETCARGNELQVPDCTKYLMENLKRLSDINYIPTKEDVLYARVRTTGVVEIQFSPVGENKKSGEVYRLFDVGGQRNERRKWIHLFEGVTAVIFCAAISEYDQTLFEDEQKNRMMETKELFDWVLKQPCFEKTSFMLFLNKFDIFEKKVLDVPLNVCEWFRDYQPVSSGKQEIEHAYEFVKKKFEELYYQNTAPDRVDRVFKIYRTTALDQKLVKKTFKLVDETLRRRNLLEAGLL | binding [3]: no binding
4 | binds | ATBα, substrate-recognition (regulatory B) subunit of protein phosphatase 2A, split-luciferase fusion (protein, UniProt Q38821 1-513) MNGGDEVVAASADPSLPLEWRFSQVFGERSAGEEVQEVDIISAIEFDNSGNHLATGDRGGRVVLFERTDTNNSSGTRRELEEADYPLRHPEFRYKTEFQSHDPEFDYLKSLEIEEKINKIRWCQTANGALFLLSTNDKTIKFWKVQDKKIKKICDMNSDPSRTVGNGTVASSSNSNITNSCLVNGGVSEVNNSLCNDFSLPAGGISSLRLPVVVTSHESSPVARCRRVYAHAHDYHINSISNNSDGETFISADDLRINLWNLEISNQSFNIVDVKPAKMEDLSEVITSAEFHPTHCNMLAYSSSKGSIRLIDLRQSALCDSHSKLFEEPEQAGPKSFFTEIIASVSDIKFAKEGRYLLSRDYMTLKLWDINMDAGPVATFQVHEYLKPKLCDLYENDSIFDKFECCISGNGLRAATGSYSNLFRVFGVAPGSTETATLEASRNPMRRHVPIPSRPSRALSSITRVVSRGSESPGVDGNTNALDYTTKLLHLAWHPNENSIACAAANSLYMYYA | –

— paper PMC10837098
